Measurements as given in publication PMC12670160, “A drug-repurposing screen of FDA- and EMA-approved drugs identifies two NF-κB inhibitors active against eumycetoma” (Journal of Antimicrobial Chemotherapy, 2025).
Where a name gives a salt, the structure may show the parent alone. Read-outs that look alike come from different tables or passages of the source. Out of some 5,300 compounds screened, about 130 (2.5%) showed an effect of 50% or more. The list shows a part of the results.

Test system: M. mycetomatis strain mm55
Conditions: primary screen, metabolic activity vs growth control, 96 h, 2 µM, inhibitor

| Compound | % viability | % viability (Madurella mycetomatis metabolic activity at 2µM (%)) |
| --- | --- | --- |
| Cc1cc(C)cc(C(=O)OC2CC3CCC(C2)N3C)c1 (centres unmarked) [ONC0001330, tropanyl35dimethylbenzoate] | 81.23% | – |
| CC(=O)NCC(=O)N1[C@@H]2CC[C@H]1c1ccc(Nc3ncc(C(F)(F)F)c(NC4CCC4)n3)cc12 [ONC0001280, pf03814735] | 83.62% | – |
| COc1ccc([C@@H]2CNC(=O)C2)cc1OC1CCCC1 [ONC0001505, rolipramr] | 84.43% | – |
| CC(=O)NCCC(=O)N[C@@H](Cc1c[nH]cn1)C(=O)O [ONC0003372, nacetyl carnosine] | 72.06% | – |
| N[C@H]1CCN(O)C1=O [ONC0003125, ha966s] | 73.5% | – |
| CC(C)[C@H](C(=O)Nc1ccc(C(=O)NO)cc1)c1ccccc1 [ONC0005231, ar42 hdac42] | 143.2% | – |
| C#C[C@]1(OC(C)=O)CC[C@H]2[C@@H]3CCC4=C[C@@H](OC(C)=O)CC[C@@H]4[C@H]3CC[C@@]21C [ONC0003967, ethynodiol diacetate] | 84.51% | – |
| Cc1ccc([N+](=O)[O-])cc1O [ONC0003756, 2methyl5nitrophenol] | 92.2% | – |
| O=C(Nc1cccc(Nc2ncc(Br)c(NCCc3c[nH]cn3)n2)c1)N1CCCC1 [ONC0004896, bx912] | 111% | – |
| CC(=O)OCC1=C(C(=O)O)N2C(=O)[C@@H](NC(=O)CSC(=NC(C)C)NC(C)C)[C@H]2SC1 [ONC0003427, cefathiamidine] | 77.15% | – |
| CNC(=O)c1c(C)oc2cc(Oc3ncnc4cc(OC)c(OC)cc34)ccc12 [ONC0001267, fruquintinib] | 109% | – |
| N#Cc1ccc2[nH]c(O)c(-c3ccc(CN4CCOCC4)cn3)c2c1 [ONC0005123, azd1080] | 87.22% | – |
| Cc1ccc(C(=O)NCCCCCC(=O)Nc2ccccc2N)cc1 [ONC0005128, rg2833 rgfp109] | 112.3% | – |
| Oc1ccc(Nc2nc(-c3ccc(Cl)cc3)cs2)cc1 [ONC0001751, skiii] | 85.39% | – |
| COc1cc2ncnc(Nc3ccc(Cl)cc3F)c2cc1OC [ONC0001350, zm306416] | 114.8% | – |
| NS(=O)(=O)c1ccc(C(=O)O)cc1 [ONC0003914, carzenide] | 66.64% | – |
| C[C@@H]1CC[C@H]2[C@@H](C)C(=O)O[C@@H]3O[C@@]4(C)CC[C@@H]1[C@]32OO4 [ONC0003146, artemisinin] | 80.92% | – |
| CN(C)[C@@H]1C(=O)C(C(N)=O)C(=O)[C@@]2(O)C(=O)C3C(=O)c4c(O)cccc4[C@@](C)(O)[C@H]3[C@H](O)[C@@H]12 (some centres unmarked) [ONC0000529, oxytetracycline] | 87.14% | – |
| C=C[C@H]1C[N@@]2CC[C@H]1C[C@@H]2[C@@H](O)c1ccnc2ccc(OC)cc12 [ONC0003347, quinidine gluconate] | 101.1% | – |
| CCC(=O)NO [ONC0002308, zami633] | 45.69% | – |
| CCOc1ccccc1C(N)=O [ONC0003166, ethenzamide] | 67.02% | – |

| Compound | % viability | % viability (Madurella mycetomatis metabolic activity at 2µM (%)) |
| --- | --- | --- |
| O=C1C(=O)C([C@H]2CC[C@H](c3ccc(Cl)cc3)CC2)C(=O)c2ccccc21 (some centres unmarked) [ONC0004233, atovaquone] | 82.03% | – |
| N[C@@H]1CCCN(c2c(/C=C3\SC(=O)NC3=O)cccc2-c2ccccc2)C1 [ONC0002158, azd1208] | 83.32% | – |
| CO[C@H]1C[C@@H]2CC[C@@H](C)[C@@](O)(O2)C(=O)C(=O)N2CCCC[C@H]2C(=O)O[C@H]([C@H](C)C[C@@H]2CC[C@@H](O)[C@H](OC)C2)CC(=O)[C@H](C)/C=C(\C)[C@@H](O)[C@@H](OC)C(=O)[C@H](C)C[C@H](C)/C=C/C=C/C=C/1C [ONC0001958, rapamycin] | 83.67% | – |
| Cc1cc(O)c(C(=O)N[C@@H](C(=O)N[C@@H]2C(=O)N3C(C(=O)O)=C(CSc4nnnn4C)CS[C@H]23)c2ccc(O)cc2)cn1.[Na] [ONC0002260, cefpiramide sodium] | 135.6% | – |
| CN(CCOc1ccc(NS(C)(=O)=O)cc1)CCc1ccc(NS(C)(=O)=O)cc1 [ONC0005010, dofetilide tikosyn] | 99.33% | – |
| CC(=O)N1CCN(c2ccc(OCC3COC(Cn4ccnc4)(c4ccc(Cl)cc4Cl)O3)cc2)CC1 (centres unmarked) [Ketoconazole] | 1.788% | – |
| Cc1[nH]c(/C=C2\C(=O)Nc3ccccc32)c(C)c1CCC(=O)O [ONC0002635, orantinib] | 79.1% | – |
| COc1cc(C=O)ccc1O [ONC0004482, vanillin] | 112.7% | – |
| COc1ccc2cccc(CCNC(C)=O)c2c1 [ONC0004782, agomelatine] | 103.1% | – |
| CN(C)CCCCSC(=N)N [ONC0002634, skf91488] | 74.33% | – |
| O=C(NCc1cccc(O)c1)Nc1nc(-c2ccncc2)cs1 [ONC0005121, rki1447] | – | 69.4% |
| CNc1ncc2cc(-c3cc(NC(=O)NCCC(C)(C)C)c(F)cc3C)c(C)nc2n1 [ONC0004544, ly3009120] | 68.8% | – |
| C#C[C@]1(O)CC[C@H]2[C@@H]3CCc4cc(OC)ccc4[C@H]3CC[C@@]21C [ONC0000489, mestranol] | 69.04% | – |
| CC(C)(C)NS(=O)(=O)c1cncc(-c2cc(F)c3nc(N)nn3c2)c1 [ONC0000027, czc24832] | 70.34% | – |
| O=C(O)P(=O)(O)O [ONC0000571, foscarnet sodium] | 78.67% | – |
| CCc1cccc(CC)c1NC(=O)c1nn(C)c2c1CCc1cnc(Nc3ccc(C(=O)NC4CCN(C)CC4)cc3OC(F)(F)F)nc1-2 [ONC0002233, nmsp715] | 70.47% | – |
| CCCCCCCCCCCCCCCC[N+](C)(C)CCN(Cc1ccc(OC)cc1)c1ncccn1 [ONC0004345, thonzonium bromide] | 90.73% | – |
| COc1cc(OC)cc(N(CCNC(C)C)c2ccc3ncc(-c4cnn(C)c4)nc3c2)c1 [ONC0001225, erdafitinib] | 103.9% | – |
| Cc1nc(C)c(Cl)c(O)c1Cl [ONC0004145, clopidol] | 65.11% | – |
| CCN(CC)CCCC(C)Nc1c2ccc(Cl)cc2nc2ccc(OC)cc12 (centres unmarked) [ONC0003413, quinacrine hydrochloride] | 84.04% | – |
| O=C(NO)C1(CS(=O)(=O)c2ccc(Oc3ccc(Cl)cc3)cc2)CCOCC1 [ONC0001029, cts1027] | 72.65% | – |

Single records, as listed above. Values in the order: % viability | % viability (Madurella mycetomatis metabolic activity at 2µM (%))
CCCCCCCCCCCCCCCC[N+](C)(C)CCN(Cc1ccc(OC)cc1)c1ncccn1 [ONC0004345, thonzonium bromide] is listed with 90.73% | –
CN(CCOc1ccc(NS(C)(=O)=O)cc1)CCc1ccc(NS(C)(=O)=O)cc1 [ONC0005010, dofetilide tikosyn] is listed with 99.33% | –

Later entries:

| Compound | % viability | % viability (Madurella mycetomatis metabolic activity at 2µM (%)) |
| --- | --- | --- |
| CC(C)C[C@H](NC(=O)[C@@H](O)[C@H](N)Cc1ccccc1)C(=O)O [ONC0001526, ubenimex] | 79.55% | – |
| COc1ccc(-n2nc3c4c([nH]cc-3c2=O)CCCCC4)cc1 [ONC0003560, cgs20625] | 134.6% | – |
| O=P(O)(O)C(O)(Cc1cnc2ccccn12)P(=O)(O)O [ONC0000278, minodronic acid hydrate] | 88.21% | – |
| C=CCc1ccc(O)c(-c2ccc(O)c(CC=C)c2)c1 [ONC0004944, honokiol] | 100.4% | – |
| COc1cc([C@@H]2c3cc4c(cc3[C@H](O)[C@H]3COC(=O)[C@H]23)OCO4)cc(OC)c1OC [ONC0005295, podofilox] | 58.67% | – |
| COc1cc2c(cc1OC)-c1cc3ccc(OC)c(OC)c3c[n+]1CC2 [ONC0004992, palmatine chloride] | 94.43% | – |
| COC(=O)[C@H]1[C@H]2C[C@@H]3c4[nH]c5cc(OC)ccc5c4CCN3C[C@H]2C[C@@H](OC(=O)c2cc(OC)c(OC)c(OC)c2)[C@@H]1OC [ONC0003379, reserpine] | 59.45% | – |
| Cc1cc(-c2nc(-c3ccc(OC(F)(F)F)cc3)no2)nn1Cc1ccnc(N2CCN(C3CC3)CC2)c1 [ONC0000748, bay 872243] | 74% | – |
| CN(C)CCCSc1ccccc1NC(=O)/C=C/c1ccccc1 [ONC0001570, cinanserin] | 74.68% | – |
| Cc1nc2cnc3ccc(C#Cc4cccnc4)cc3c2n1-c1ccc(C(C)(C)C#N)cc1 [ONC0000261, bag956] | 56.93% | – |
| CN1C(=O)N(c2cc(Cl)cc(Cl)c2)C(=O)[C@]12CN(c1ccc(C(=O)O)cn1)C[C@H]2c1ccc(C#N)cc1 [ONC0001955, bms688521] | 85.35% | – |
| O=C(NOCCO)c1cc(CN2OCCCC2=O)c(F)c(F)c1Nc1ccc(I)cc1F [ONC0000778, ro4987655] | 63.33% | – |
| Nc1c2c(nc3c1CCC3)CCCC2 [ONC0002870, ipidacrine] | 76.26% | – |
| O=C(O)c1ccc(Nc2ncc3c(n2)-c2ccc(Cl)cc2C(c2c(F)cccc2F)=NC3)cc1 [ONC0004728, mln8054] | 102.9% | – |
| C[C@H](NC(=O)Cc1cc(F)cc(F)c1)C(=O)N[C@@H]1C(=O)N(C)c2ccccc2-c2ccccc21 [ONC0005046, yo01027 dibenzazepine] | 68.73% | – |
| O=c1c(-c2ccc(O)cc2)coc2cc(O)cc(O)c12 [ONC0003259, genistein] | 82.01% | – |
| CCOC(=O)Nc1ccc2c(c1)N(C(=O)CCN1CCOCC1)c1ccccc1S2 [ONC0002922, moracizine] | 68.55% | – |
| N[C@H](Cc1ccccc1)C(=O)O [ONC0002457, dphenylalanine] | 101.3% | – |
| Cc1cn(C2CC(N=[N+]=[N-])C(CO)O2)c(=O)[nH]c1=O (centres unmarked) [ONC0004065, zidovudine azt] | 88.54% | – |
| OCc1ccc(-c2ccc(-c3ccc(CO)s3)o2)s1 [ONC0005235, rita nsc 652287] | 156.1% | – |
